Measurements as given in the supplement of paper PMC7661543.
The effect of the compound repeats well; differences between the knockouts mostly do not.

Test system: SKBR3
Assay: relative cell number vs DMSO control (72 h) (% of DMSO); higher = less growth inhibition (more cells)
Protocol: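 QMAP-Seq: a pool of 5 breast cancer cell lines (ZR-75-1, SKBR3, HCC-38, MDA-MB-231, BT-20), each carrying 12 doxycycline-inducible Cas9 sgRNA perturbations (11 knockouts plus non-targeting sgNT), was treated with compounds for 72 h at four 10-fold doses (10 nM-10 uM or 1 nM-1 uM range). Barcodes were amplified and sequenced, and cell number was interpolated from 293T spike-in standard curves. The result is expressed as % of the median of DMSO wells. Two biological replicates.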

O=C(O)CC[C@H]1CC[C@@](c2cc(F)ccc2F)(S(=O)(=O)c2ccc(Cl)cc2)CC1 [MK0752]
Conditions | relative cell number
sgRNA knockout: sgATF3, 10 nM | 154
sgRNA knockout: sgATF3, 100 nM | 137
sgRNA knockout: sgATF3, 1000 nM | 99.5
sgRNA knockout: sgATF3, 10000 nM | 119
sgRNA knockout: sgATF4, 10 nM | 146
sgRNA knockout: sgATF4, 100 nM | 105
sgRNA knockout: sgATF4, 1000 nM | 102
sgRNA knockout: sgATF4, 10000 nM | 109
sgRNA knockout: sgATF6, 10 nM | 119
sgRNA knockout: sgATF6, 100 nM | 93.3
sgRNA knockout: sgATF6, 1000 nM | 101
sgRNA knockout: sgATF6, 10000 nM | 98.5
sgRNA knockout: sgATG7, 10 nM | 177
sgRNA knockout: sgATG7, 100 nM | 108.8
sgRNA knockout: sgATG7, 1000 nM | 111
sgRNA knockout: sgATG7, 10000 nM | 140
sgRNA knockout: sgERN1, 10 nM | 143
sgRNA knockout: sgERN1, 100 nM | 110
sgRNA knockout: sgERN1, 1000 nM | 121
sgRNA knockout: sgERN1, 10000 nM | 132
sgRNA knockout: sgHSF1, 10 nM | 139
sgRNA knockout: sgHSF1, 100 nM | 128
sgRNA knockout: sgHSF1, 1000 nM | 96.6
sgRNA knockout: sgHSF1, 10000 nM | 114.4
sgRNA knockout: sgHSF2, 10 nM | 122
sgRNA knockout: sgHSF2, 100 nM | 123
sgRNA knockout: sgHSF2, 1000 nM | 116
sgRNA knockout: sgHSF2, 10000 nM | 117
sgRNA knockout: sgKEAP1, 10 nM | 121
sgRNA knockout: sgKEAP1, 100 nM | 112
sgRNA knockout: sgKEAP1, 1000 nM | 106
sgRNA knockout: sgKEAP1, 10000 nM | 104
sgRNA knockout: sgNFE2L2, 10 nM | 186
sgRNA knockout: sgNFE2L2, 100 nM | 125
sgRNA knockout: sgNFE2L2, 1000 nM | 113
sgRNA knockout: sgNFE2L2, 10000 nM | 131
sgRNA knockout: sgSLC35F2, 10 nM | 150
sgRNA knockout: sgSLC35F2, 100 nM | 124
sgRNA knockout: sgSLC35F2, 1000 nM | 128
sgRNA knockout: sgSLC35F2, 10000 nM | 116
sgRNA knockout: sgXBP1, 10 nM | 142
sgRNA knockout: sgXBP1, 100 nM | 116
sgRNA knockout: sgXBP1, 1000 nM | 135
sgRNA knockout: sgXBP1, 10000 nM | 141

C=CCn1c(=O)c2cnc(Nc3ccc(N4CCN(C)CC4)cc3)nc2n1-c1cccc(C(C)(C)O)n1 [MK1775]
Conditions | relative cell number
sgRNA knockout: sgATF3, 10 nM | 85
sgRNA knockout: sgATF3, 100 nM | 115
sgRNA knockout: sgATF3, 1000 nM | 32.2
sgRNA knockout: sgATF3, 10000 nM | 17.6
sgRNA knockout: sgATF4, 10 nM | 85.6
sgRNA knockout: sgATF4, 100 nM | 94.6
sgRNA knockout: sgATF4, 1000 nM | 24.1
sgRNA knockout: sgATF4, 10000 nM | 13.6
sgRNA knockout: sgATF6, 10 nM | 84.8
sgRNA knockout: sgATF6, 100 nM | 81.7
sgRNA knockout: sgATF6, 1000 nM | 19
sgRNA knockout: sgATF6, 10000 nM | 12.7
sgRNA knockout: sgATG7, 10 nM | 70.6
sgRNA knockout: sgATG7, 100 nM | 96.7
sgRNA knockout: sgATG7, 1000 nM | 19.1
sgRNA knockout: sgATG7, 10000 nM | 15.4
sgRNA knockout: sgERN1, 10 nM | 105
sgRNA knockout: sgERN1, 100 nM | 89.2
sgRNA knockout: sgERN1, 1000 nM | 19.5
sgRNA knockout: sgERN1, 10000 nM | 12.7
sgRNA knockout: sgHSF1, 10 nM | 78.2
sgRNA knockout: sgHSF1, 100 nM | 96.6
sgRNA knockout: sgHSF1, 1000 nM | 24.7
sgRNA knockout: sgHSF1, 10000 nM | 11.7
sgRNA knockout: sgHSF2, 10 nM | 81.9
sgRNA knockout: sgHSF2, 100 nM | 93.5
sgRNA knockout: sgHSF2, 1000 nM | 24.4
sgRNA knockout: sgHSF2, 10000 nM | 11.1
sgRNA knockout: sgKEAP1, 10 nM | 93
sgRNA knockout: sgKEAP1, 100 nM | 67.6
sgRNA knockout: sgKEAP1, 1000 nM | 20
sgRNA knockout: sgKEAP1, 10000 nM | 12.4
sgRNA knockout: sgNFE2L2, 10 nM | 85.6
sgRNA knockout: sgNFE2L2, 100 nM | 98.2
sgRNA knockout: sgNFE2L2, 1000 nM | 20
sgRNA knockout: sgNFE2L2, 10000 nM | 9.15
sgRNA knockout: sgSLC35F2, 10 nM | 88.6
sgRNA knockout: sgSLC35F2, 100 nM | 77.4
sgRNA knockout: sgSLC35F2, 1000 nM | 19.2
sgRNA knockout: sgSLC35F2, 10000 nM | 9.66
sgRNA knockout: sgXBP1, 10 nM | 103
sgRNA knockout: sgXBP1, 100 nM | 88.5
sgRNA knockout: sgXBP1, 1000 nM | 19.7
sgRNA knockout: sgXBP1, 10000 nM | 12.5

CN(Cc1cnc2nc(N)nc(N)c2n1)c1ccc(C(=O)N[C@@H](CCC(=O)O)C(=O)O)cc1 [Methotrexate]
Conditions | relative cell number
sgRNA knockout: sgATF3, 10 nM | 101
sgRNA knockout: sgATF3, 100 nM | 48.2
sgRNA knockout: sgATF3, 1000 nM | 22.8
sgRNA knockout: sgATF3, 10000 nM | 15
sgRNA knockout: sgATF4, 10 nM | 98.2
sgRNA knockout: sgATF4, 100 nM | 47.8
sgRNA knockout: sgATF4, 1000 nM | 28.52
sgRNA knockout: sgATF4, 10000 nM | 20.35
sgRNA knockout: sgATF6, 10 nM | 90.1
sgRNA knockout: sgATF6, 100 nM | 47.2
sgRNA knockout: sgATF6, 1000 nM | 23.4
sgRNA knockout: sgATF6, 10000 nM | 22.3
sgRNA knockout: sgATG7, 10 nM | 98.7
sgRNA knockout: sgATG7, 100 nM | 37.6
sgRNA knockout: sgATG7, 1000 nM | 17.98
sgRNA knockout: sgATG7, 10000 nM | 18.1
sgRNA knockout: sgERN1, 10 nM | 81.3
sgRNA knockout: sgERN1, 100 nM | 38.07
sgRNA knockout: sgERN1, 1000 nM | 21.8
sgRNA knockout: sgERN1, 10000 nM | 19.3
sgRNA knockout: sgHSF1, 10 nM | 74.3
sgRNA knockout: sgHSF1, 100 nM | 44.32
sgRNA knockout: sgHSF1, 1000 nM | 27.5
sgRNA knockout: sgHSF1, 10000 nM | 14.5
sgRNA knockout: sgHSF2, 10 nM | 94.9
sgRNA knockout: sgHSF2, 100 nM | 46.7
sgRNA knockout: sgHSF2, 1000 nM | 24
sgRNA knockout: sgHSF2, 10000 nM | 18
sgRNA knockout: sgKEAP1, 10 nM | 76.7
sgRNA knockout: sgKEAP1, 100 nM | 49.2
sgRNA knockout: sgKEAP1, 1000 nM | 21.4
sgRNA knockout: sgKEAP1, 10000 nM | 15.4
sgRNA knockout: sgNFE2L2, 10 nM | 92.4
sgRNA knockout: sgNFE2L2, 100 nM | 37.76
sgRNA knockout: sgNFE2L2, 1000 nM | 23.7
sgRNA knockout: sgNFE2L2, 10000 nM | 18.6
sgRNA knockout: sgSLC35F2, 10 nM | 88.6
sgRNA knockout: sgSLC35F2, 100 nM | 39.3
sgRNA knockout: sgSLC35F2, 1000 nM | 14.2
sgRNA knockout: sgSLC35F2, 10000 nM | 17.6
sgRNA knockout: sgXBP1, 10 nM | 108
sgRNA knockout: sgXBP1, 100 nM | 49.6
sgRNA knockout: sgXBP1, 1000 nM | 21.47
sgRNA knockout: sgXBP1, 10000 nM | 21.2
